The numbers were not newly measured in PMC8288134, “Synthesis, potential antitumor activity, cell cycle analysis, and multitarget mechanisms of novel hydrazones incorporating a 4-methylsulfonylbenzene scaffold: a molecular docking study” (Journal of Enzyme Inhibition and Medicinal Chemistry, 2021), which cites them from elsewhere.

The data set concerns CAKI-1. On the set-up: method as in https://dtp.cancer.gov/dtpstandard/dwindex/index.jsp. The conditions noted are these: reference drugs, ref https://dtp.cancer.gov/dtpstandard/dwindex/index.jsp; cited from earlier work.

As for `COc1cc2ncnc(Nc3ccc(F)c(Cl)c3)c2cc1OCCCN1CCOCC1` [Gefitinib, gefitinib], the GI50 was 501 nM.

Broadly, the GI50 is the concentration at which growth is held to half of that of the control.
